Laboratory results: publication PMC4559962
Results are given in words; binding and its absence hold for the method and conditions named. Binding seen in cells or lysates may run through a third protein. A yes stands for co-enrichment or nearness to the bait. Other partners may have been found. Tags and fused reporters may be left off the sequences shown.

Protein sequences, listed by entry. Tags and fused reporters are not part of them.
UniProt P25694: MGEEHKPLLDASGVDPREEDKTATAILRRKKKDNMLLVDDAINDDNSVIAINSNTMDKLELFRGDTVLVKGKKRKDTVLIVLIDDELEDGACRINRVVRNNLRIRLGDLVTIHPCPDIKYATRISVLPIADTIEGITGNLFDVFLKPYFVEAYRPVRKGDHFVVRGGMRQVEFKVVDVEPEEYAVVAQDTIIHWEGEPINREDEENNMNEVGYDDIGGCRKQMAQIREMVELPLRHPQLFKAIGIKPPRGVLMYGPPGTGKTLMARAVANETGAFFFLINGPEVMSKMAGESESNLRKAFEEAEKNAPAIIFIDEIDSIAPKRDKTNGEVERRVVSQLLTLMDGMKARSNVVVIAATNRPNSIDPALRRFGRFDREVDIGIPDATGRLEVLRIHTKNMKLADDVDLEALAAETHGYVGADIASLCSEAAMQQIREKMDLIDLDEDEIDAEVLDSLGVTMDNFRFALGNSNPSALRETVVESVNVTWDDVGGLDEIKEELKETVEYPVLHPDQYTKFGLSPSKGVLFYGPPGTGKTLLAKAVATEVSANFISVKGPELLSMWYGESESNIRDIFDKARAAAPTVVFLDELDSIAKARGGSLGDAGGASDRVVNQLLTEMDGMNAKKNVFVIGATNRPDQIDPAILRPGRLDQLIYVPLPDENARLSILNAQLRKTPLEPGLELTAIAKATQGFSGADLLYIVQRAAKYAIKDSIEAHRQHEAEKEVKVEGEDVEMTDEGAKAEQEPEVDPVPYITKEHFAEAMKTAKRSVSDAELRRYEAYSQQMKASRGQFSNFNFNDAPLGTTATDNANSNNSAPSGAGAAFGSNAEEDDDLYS

Target: T1, Wss1-Myc13 (chromosomally tagged) (S. cerevisiae) (UniProt P38838)
T1 sequence: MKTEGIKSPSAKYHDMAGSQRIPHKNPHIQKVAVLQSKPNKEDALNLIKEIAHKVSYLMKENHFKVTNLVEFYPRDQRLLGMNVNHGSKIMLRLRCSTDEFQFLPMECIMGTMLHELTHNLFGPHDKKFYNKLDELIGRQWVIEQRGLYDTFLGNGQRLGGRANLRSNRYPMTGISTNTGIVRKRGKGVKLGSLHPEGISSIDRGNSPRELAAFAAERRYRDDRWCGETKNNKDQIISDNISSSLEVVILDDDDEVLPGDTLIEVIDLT
Test: affinity purification with mass spectrometry; Wss1-Myc13 from the endogenous locus; lysate on anti-c-Myc agarose, 1 hr at 4°C; parental strain as control; LC-MS/MS

Cdc48 (endogenous) (from UniProt P25694 1-835) (enzyme)
binding: binds
